According to article PMC6669929:
No constants are given. Whether binding was seen depends on the method and setting. Binding seen in cells or lysates may run through a third protein. Some binding calls cover weakened binding; strength is not graded here. Where a sequence is shown, tags or fusion partners need not be part of it.

Sequences of proteins named here, by UniProt entry; tags and fusion partners are left off. Residues count along the entry.
UniProt Q9EQY0, residues 21-977: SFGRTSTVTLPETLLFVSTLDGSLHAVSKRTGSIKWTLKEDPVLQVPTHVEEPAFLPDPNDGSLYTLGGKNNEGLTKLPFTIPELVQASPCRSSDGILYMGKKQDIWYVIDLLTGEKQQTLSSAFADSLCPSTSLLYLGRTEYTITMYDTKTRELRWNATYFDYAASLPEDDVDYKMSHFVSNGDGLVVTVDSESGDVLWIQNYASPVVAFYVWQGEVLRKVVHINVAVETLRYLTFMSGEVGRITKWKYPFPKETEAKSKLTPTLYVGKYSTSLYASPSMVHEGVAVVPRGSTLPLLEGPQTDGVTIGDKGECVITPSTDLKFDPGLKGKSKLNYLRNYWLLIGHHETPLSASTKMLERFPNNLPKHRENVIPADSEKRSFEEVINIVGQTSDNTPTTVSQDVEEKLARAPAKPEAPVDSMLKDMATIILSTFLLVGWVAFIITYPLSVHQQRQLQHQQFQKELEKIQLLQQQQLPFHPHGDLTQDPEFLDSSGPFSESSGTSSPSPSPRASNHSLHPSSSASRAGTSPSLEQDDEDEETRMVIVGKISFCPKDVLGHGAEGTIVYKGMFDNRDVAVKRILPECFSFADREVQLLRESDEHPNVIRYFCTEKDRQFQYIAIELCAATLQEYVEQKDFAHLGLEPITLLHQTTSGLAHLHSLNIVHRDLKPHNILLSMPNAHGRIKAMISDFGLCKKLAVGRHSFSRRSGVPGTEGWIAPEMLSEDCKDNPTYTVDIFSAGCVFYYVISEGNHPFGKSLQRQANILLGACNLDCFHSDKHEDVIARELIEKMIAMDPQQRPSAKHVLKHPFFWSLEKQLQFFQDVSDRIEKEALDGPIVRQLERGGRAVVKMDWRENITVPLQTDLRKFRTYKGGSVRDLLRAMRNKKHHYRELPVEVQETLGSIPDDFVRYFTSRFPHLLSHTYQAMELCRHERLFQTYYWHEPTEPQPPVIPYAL

Molecular target: T1, GST-fused MITOL N-ter (1–90 aa of MITOL) (UniProt Q9NX47)
T1 sequence: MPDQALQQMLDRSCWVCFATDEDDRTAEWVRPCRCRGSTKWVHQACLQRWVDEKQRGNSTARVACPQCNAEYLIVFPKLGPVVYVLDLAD
Assay: pull-down; purified GST-fusion fragments of MITOL or IRE1α on glutathione magnetic agarose beads incubated with lysates from MEFs, immunoblot (Fig 4C, D); only the target purified

IRE1α, endogenous in MEFs and in mouse spinal cord (from UniProt Q9EQY0 21-977)
binding: binds
